Source: the supplement of paper PMC12595434, “Development of retinoid nuclear receptor pathway antagonists through targeting aldehyde dehydrogenase 1A3” (iScience, 2025)
The other results are listed elsewhere or left out. This is a noisy data set.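 Tm was set to 64 °C where no melting was found, and many curves are irregular.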

Protein sequences, listed by entry. Tags and fused reporters are not part of them. Lines headed by an entry give the natural chain unless they say otherwise; changes in a name come on top.
UniProt Q8N806: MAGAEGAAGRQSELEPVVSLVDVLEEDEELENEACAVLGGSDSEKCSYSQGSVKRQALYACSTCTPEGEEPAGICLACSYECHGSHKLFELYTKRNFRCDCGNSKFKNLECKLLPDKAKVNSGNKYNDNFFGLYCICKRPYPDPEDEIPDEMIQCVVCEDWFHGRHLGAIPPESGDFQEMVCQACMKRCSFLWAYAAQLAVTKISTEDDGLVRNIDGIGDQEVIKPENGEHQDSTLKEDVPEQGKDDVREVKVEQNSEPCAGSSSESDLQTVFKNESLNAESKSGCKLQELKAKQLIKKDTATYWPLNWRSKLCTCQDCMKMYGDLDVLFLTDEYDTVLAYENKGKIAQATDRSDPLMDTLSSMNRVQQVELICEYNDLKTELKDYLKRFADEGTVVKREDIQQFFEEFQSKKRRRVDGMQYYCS
UniProt Q8N3P4: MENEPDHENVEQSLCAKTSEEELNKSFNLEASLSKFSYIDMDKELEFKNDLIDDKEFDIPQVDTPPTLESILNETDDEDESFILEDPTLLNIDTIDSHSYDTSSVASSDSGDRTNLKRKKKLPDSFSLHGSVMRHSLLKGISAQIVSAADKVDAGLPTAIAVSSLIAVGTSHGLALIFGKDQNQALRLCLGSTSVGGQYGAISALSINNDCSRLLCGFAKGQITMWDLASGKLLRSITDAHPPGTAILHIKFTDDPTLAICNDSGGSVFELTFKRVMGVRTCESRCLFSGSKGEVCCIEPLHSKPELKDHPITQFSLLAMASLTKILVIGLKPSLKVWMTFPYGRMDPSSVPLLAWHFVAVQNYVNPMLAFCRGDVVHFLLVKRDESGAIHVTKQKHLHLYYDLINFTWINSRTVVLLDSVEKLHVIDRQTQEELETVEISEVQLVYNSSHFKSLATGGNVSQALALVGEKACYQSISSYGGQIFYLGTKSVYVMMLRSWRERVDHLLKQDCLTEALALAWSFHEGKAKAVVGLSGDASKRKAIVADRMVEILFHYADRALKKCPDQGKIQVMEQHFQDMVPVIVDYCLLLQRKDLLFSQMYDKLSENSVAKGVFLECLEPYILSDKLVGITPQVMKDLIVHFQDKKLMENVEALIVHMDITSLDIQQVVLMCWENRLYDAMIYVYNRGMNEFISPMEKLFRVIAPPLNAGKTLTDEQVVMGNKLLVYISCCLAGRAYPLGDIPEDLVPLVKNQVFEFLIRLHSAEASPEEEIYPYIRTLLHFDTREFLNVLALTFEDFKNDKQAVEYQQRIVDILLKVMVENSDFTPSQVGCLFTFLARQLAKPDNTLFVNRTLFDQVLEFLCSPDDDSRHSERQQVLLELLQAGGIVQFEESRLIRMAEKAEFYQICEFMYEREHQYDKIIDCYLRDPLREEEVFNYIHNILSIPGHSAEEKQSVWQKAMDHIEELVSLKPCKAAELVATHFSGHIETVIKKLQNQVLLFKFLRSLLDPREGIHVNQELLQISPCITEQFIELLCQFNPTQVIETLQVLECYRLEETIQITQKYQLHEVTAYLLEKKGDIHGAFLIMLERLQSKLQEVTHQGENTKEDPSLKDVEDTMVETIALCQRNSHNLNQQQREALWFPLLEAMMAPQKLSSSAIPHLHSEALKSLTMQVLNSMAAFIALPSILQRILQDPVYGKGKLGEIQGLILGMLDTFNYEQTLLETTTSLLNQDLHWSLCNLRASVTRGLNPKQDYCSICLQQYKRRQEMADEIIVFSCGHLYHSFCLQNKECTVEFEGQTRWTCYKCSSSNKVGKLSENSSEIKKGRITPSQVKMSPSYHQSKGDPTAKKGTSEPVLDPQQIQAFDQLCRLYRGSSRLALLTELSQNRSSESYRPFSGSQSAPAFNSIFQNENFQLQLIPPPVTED
UniProt Q8IZV5: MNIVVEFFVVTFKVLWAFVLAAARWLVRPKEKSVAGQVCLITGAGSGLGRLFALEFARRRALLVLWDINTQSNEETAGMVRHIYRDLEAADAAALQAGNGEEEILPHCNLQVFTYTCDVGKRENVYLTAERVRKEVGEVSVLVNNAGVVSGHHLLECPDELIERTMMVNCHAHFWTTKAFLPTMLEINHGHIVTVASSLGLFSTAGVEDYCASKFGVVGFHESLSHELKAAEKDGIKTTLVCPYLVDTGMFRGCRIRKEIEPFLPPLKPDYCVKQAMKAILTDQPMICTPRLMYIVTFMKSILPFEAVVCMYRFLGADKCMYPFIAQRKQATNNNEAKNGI
UniProt Q8N5C6: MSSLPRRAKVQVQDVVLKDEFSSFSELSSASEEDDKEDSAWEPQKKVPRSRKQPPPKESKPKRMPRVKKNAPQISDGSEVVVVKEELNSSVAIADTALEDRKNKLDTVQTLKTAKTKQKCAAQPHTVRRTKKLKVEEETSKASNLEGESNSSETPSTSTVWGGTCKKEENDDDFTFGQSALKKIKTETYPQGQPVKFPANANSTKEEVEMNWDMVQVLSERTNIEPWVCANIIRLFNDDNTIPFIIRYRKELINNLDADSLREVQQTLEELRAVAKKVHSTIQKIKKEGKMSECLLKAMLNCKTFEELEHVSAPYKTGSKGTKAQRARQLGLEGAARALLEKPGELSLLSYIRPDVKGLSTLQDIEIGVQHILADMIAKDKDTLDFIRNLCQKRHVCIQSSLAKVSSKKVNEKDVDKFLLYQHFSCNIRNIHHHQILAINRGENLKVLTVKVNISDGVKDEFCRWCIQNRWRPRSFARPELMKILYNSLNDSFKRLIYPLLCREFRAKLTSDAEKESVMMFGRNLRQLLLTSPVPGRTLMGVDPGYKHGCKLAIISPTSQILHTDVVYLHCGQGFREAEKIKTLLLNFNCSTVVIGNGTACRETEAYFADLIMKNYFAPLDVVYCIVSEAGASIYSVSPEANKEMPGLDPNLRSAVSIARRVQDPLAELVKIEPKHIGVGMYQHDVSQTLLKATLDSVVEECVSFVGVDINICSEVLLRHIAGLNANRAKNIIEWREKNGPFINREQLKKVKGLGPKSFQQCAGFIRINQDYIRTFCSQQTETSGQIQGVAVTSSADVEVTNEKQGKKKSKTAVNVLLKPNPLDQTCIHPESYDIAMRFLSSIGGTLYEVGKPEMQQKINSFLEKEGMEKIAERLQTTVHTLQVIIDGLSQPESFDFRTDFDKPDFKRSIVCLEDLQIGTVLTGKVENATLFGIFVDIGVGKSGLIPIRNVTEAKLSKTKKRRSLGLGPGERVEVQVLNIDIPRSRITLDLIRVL
UniProt Q8N0T1: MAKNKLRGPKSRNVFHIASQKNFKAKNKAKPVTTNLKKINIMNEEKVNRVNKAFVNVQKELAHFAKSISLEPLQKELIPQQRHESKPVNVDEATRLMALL
UniProt Q8N5I9: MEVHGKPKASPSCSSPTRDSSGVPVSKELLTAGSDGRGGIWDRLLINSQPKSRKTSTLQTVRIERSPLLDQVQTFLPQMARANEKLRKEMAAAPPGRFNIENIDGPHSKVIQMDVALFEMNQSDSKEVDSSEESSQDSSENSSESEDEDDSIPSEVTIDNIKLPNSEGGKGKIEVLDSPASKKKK
UniProt Q8N3V7: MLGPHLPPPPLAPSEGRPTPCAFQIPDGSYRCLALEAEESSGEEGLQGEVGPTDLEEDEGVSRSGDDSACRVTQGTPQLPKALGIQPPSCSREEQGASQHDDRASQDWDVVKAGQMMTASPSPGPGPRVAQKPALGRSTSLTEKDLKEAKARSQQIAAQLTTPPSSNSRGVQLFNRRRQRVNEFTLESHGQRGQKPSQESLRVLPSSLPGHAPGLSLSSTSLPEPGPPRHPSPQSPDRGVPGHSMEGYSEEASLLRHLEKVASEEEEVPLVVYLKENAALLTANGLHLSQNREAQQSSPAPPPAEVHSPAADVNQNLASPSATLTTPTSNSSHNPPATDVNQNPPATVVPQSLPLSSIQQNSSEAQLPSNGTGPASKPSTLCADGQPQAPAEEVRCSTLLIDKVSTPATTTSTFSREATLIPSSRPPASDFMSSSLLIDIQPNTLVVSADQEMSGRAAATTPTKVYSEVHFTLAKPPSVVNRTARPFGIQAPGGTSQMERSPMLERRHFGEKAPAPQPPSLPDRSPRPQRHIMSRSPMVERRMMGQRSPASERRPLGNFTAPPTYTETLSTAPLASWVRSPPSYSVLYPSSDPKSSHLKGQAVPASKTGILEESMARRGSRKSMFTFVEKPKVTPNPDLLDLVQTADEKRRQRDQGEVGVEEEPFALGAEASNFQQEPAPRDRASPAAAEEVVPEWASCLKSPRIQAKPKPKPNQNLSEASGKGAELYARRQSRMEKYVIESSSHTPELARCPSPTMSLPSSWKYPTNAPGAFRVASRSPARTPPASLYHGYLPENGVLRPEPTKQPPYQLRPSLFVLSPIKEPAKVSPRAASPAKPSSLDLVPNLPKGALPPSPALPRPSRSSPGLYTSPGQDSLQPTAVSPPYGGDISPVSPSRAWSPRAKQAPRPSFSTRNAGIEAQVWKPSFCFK
UniProt Q8IXM2, whole entry, looked up: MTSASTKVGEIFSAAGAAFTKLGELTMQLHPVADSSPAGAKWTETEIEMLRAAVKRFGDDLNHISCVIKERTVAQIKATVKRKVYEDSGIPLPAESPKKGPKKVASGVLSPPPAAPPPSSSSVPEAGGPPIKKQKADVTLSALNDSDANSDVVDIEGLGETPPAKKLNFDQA
UniProt Q8N5K1: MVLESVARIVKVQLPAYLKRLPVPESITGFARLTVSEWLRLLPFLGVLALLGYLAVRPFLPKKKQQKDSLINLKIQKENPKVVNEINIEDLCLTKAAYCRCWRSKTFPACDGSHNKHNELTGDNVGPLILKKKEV
UniProt Q8IZX4, whole entry: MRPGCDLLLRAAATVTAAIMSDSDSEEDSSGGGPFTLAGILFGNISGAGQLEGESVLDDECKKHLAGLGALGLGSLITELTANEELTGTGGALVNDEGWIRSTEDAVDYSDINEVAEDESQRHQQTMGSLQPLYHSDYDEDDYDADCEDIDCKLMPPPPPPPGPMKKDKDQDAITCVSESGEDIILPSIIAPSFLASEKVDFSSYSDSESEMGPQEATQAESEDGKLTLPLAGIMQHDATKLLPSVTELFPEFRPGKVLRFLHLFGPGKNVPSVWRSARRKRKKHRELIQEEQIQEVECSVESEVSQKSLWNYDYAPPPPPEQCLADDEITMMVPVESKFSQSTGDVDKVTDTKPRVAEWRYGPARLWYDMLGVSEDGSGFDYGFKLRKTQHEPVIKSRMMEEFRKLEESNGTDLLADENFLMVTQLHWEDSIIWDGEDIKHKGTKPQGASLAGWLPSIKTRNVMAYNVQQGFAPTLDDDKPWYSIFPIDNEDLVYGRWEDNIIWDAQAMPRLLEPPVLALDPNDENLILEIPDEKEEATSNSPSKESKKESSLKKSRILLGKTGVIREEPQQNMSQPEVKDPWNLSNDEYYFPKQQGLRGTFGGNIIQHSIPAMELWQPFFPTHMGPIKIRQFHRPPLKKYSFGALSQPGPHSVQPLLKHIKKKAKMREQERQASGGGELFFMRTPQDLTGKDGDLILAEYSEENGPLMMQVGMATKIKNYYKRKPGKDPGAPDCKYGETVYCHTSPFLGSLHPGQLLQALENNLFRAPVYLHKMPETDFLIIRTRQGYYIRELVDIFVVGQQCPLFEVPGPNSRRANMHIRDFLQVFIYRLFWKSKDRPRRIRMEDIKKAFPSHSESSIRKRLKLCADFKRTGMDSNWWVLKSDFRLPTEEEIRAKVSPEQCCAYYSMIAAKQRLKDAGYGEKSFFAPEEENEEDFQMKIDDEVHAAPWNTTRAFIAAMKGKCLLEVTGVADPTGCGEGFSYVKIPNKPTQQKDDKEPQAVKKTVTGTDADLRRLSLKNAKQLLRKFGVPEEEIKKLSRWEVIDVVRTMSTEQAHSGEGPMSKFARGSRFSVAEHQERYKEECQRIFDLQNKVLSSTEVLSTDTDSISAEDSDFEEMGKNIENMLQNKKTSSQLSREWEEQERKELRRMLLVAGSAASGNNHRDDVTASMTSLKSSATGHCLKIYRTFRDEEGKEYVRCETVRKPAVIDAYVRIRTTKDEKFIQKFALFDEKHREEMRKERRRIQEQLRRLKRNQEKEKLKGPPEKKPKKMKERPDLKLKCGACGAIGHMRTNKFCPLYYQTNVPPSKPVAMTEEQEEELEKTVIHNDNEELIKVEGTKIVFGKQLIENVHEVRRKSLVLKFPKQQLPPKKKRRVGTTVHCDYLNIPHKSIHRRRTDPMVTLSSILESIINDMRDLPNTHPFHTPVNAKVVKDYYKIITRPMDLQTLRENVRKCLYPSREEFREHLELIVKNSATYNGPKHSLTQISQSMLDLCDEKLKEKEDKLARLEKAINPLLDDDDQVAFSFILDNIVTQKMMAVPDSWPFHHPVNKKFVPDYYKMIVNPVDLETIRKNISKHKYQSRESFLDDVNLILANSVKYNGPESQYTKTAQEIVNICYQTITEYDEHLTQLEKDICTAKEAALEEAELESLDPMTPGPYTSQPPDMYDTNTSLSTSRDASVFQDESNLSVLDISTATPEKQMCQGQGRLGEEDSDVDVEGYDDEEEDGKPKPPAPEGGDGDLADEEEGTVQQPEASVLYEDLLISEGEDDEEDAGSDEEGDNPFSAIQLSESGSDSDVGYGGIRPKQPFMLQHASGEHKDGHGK

Compound: CCc1cnccc1C(=O)Nc1cc2c(cc1F)NC(=O)CC2
Assay: melting temperature shift (DMSO Tm minus MBE1-treated Tm) in cellular thermal proteome profiling; higher = less thermal stabilization by MBE1 (negative = stabilized by MBE1)
Settings: A375

| Target | melting temperature shift (MBE1 concentration: 100 nM) [°C] | melting temperature shift (MBE1 concentration: 1 uM) [°C] |
| --- | --- | --- |
| UniProt Q8IVL6 | -0.751 | 0.232 |
| STK11IP (UniProt Q8N1F8) | 0.208 | -1.25 |
| UniProt Q8N567 | -2.08 | 0.495 |
| UniProt Q8IUZ5 | -3.01 | 0.934 |
| DIS3L2 (UniProt Q8IYB7) | 0.208 | 0.0305 |
| UniProt Q86WN1 | 0.0611 | 0.0244 |
| UBE2J2 (UniProt Q8N2K1) | 0.525 | -0.0794 |
| UniProt Q8N201 | -0.436 | -0.698 |
| UniProt Q86YR5 | -1.07 | -0.365 |
| UBR7 (UniProt Q8N806) | 0.177 | -0.171 |
| UniProt Q8IY21 | 0.977 | 0.165 |
| UniProt Q8N474 | -1.34 | -4.12 |
| UniProt Q8IWE5 | -0.0672 | 1.48 |
| UEVLD (UniProt Q8IX04) | 0.946 | -1.2 |
| ELMOD2 (UniProt Q8IZ81) | -0.723 | 0.256 |
| NCAPG2 (UniProt Q86XI2) | -0.92 | -0.356 |
| VPS8 (UniProt Q8N3P4) | 1.83 | 1.53 |
| DHX37 (UniProt Q8IY37) | -0.84 | -6.92 |
| RDH10 (UniProt Q8IZV5) | -1.05 | 0.503 |
| MRPL41 (UniProt Q8IXM3) | 3.04 | 1.14 |
| ZC3H7A (UniProt Q8IWR0) | -0.82 | -0.493 |
| LRRC8A (UniProt Q8IWT6) | -0.637 | 0.538 |
| UniProt Q86XE0 | 0.0794 | -0.641 |
| CCDC117 (UniProt Q8IWD4) | -3.74 | -1.95 |

| Target | melting temperature shift (MBE1 concentration: 100 nM) [°C] | melting temperature shift (MBE1 concentration: 1 uM) [°C] |
| --- | --- | --- |
| LIX1L (UniProt Q8IVB5) | -0.792 | -0.527 |
| UniProt Q8N5C6 | -0.282 | -0.0513 |
| CHD1L (UniProt Q86WJ1) | -1.88 | -0.744 |
| C8ORF59 (UniProt Q8N0T1) | -4.9 | -2.85 |
| CAND1 (UniProt Q86VP6) | -0.94 | 0.195 |
| CACUL1 (UniProt Q86Y37) | -0.718 | -0.167 |
| MRPL50 (UniProt Q8N5N7) | 3.6 | -3.37 |
| UniProt Q8N8A6 | -0.39 | -0.103 |
| UniProt Q8IXK0 | -0.378 | -0.98 |
| C12ORF45 (UniProt Q8N5I9) | -7.9 | -2.8 |
| UniProt Q86X95 | -4.24 | -5.1 |
| SMAP1 (UniProt Q8IYB5) | -0.0916 | 0.385 |
| EMC1 (UniProt Q8N766) | -0.812 | 0.248 |
| IRF2BP1 (UniProt Q8IU81) | 0.468 | -0.135 |
| TMEM173 (UniProt Q86WV6) | 0.134 | 0.153 |
| TRAPPC5 (UniProt Q8IUR0) | -0.672 | -0.721 |
| SRRM1 (UniProt Q8IYB3) | -1.27 | 0.202 |
| TAX1BP1 (UniProt Q86VP1) | 1.43 | 1.45 |
| UniProt Q8N8D1 | -1.46 | -1.16 |
| UniProt Q8N3V7 | 0.989 | 1.67 |
| UniProt Q8IXM2 | -0.999 | -0.429 |
| DDX42 (UniProt Q86XP3) | -0.0897 | -0.173 |
| CISD2 (UniProt Q8N5K1) | -0.269 | -2.05 |
| ARMC8 (UniProt Q8IUR7) | 0.342 | 0.25 |

| Target | melting temperature shift (MBE1 concentration: 100 nM) [°C] | melting temperature shift (MBE1 concentration: 1 uM) [°C] |
| --- | --- | --- |
| TMEM199 (UniProt Q8N511) | -0.946 | 0.434 |
| CEP97 (UniProt Q8IW35) | 0.0546 | -0.281 |
| UniProt Q86VX2 | -0.168 | -0.778 |
| CDR2L (UniProt Q86X02) | -0.53 | 0.556 |
| RHOT1 (UniProt Q8IXI2) | -0.552 | -0.0122 |
| UniProt Q8N4A0 | 0.678 | 0.898 |
| WDFY3 (UniProt Q8IZQ1) | -2.72 | -0.531 |
| GTPBP8 (UniProt Q8N3Z3) | -0.494 | -0.482 |
| UniProt Q86VP3 | -3.42 | -6.02 |
| UniProt Q8IXU6 | -0.502 | 1.12 |
| MICALL1 (UniProt Q8N3F8) | 0.672 | 0.702 |
| THOC6 (UniProt Q86W42) | 0.171 | -0.0916 |
| COMMD1 (UniProt Q8N668) | 1.63 | 0.491 |
| UniProt Q8IZX4 | -3.36 | -1.18 |
| UniProt Q8N5D0 | 1.4 | 0.256 |
| WDR75 (UniProt Q8IWA0) | -0.0659 | 0.372 |
| CMTR1 (UniProt Q8N1G2) | 0.195 | 0.0244 |
| UniProt Q8IWI9 | -0.628 | -0.782 |
| SLC15A4 (UniProt Q8N697) | -3.67 | 0.644 |
| UniProt Q86WT1 | -1.11 | -0.16 |
| UniProt Q8N302 | -1.46 | -0.584 |
| OGFOD1 (UniProt Q8N543) | -2.44 | 0.0582 |
| DENND6A (UniProt Q8IWF6) | -2.19 | 0.446 |

Taken from the listing (17 entries):

| Target | melting temperature shift (MBE1 concentration: 100 nM) [°C] | melting temperature shift (MBE1 concentration: 1 uM) [°C] |
| --- | --- | --- |
| CEP97 (UniProt Q8IW35) | 0.0546 | -0.281 |
| UniProt Q86VX2 | -0.168 | -0.778 |
| CDR2L (UniProt Q86X02) | -0.53 | 0.556 |
| RHOT1 (UniProt Q8IXI2) | -0.552 | -0.0122 |
| UniProt Q8N4A0 | 0.678 | 0.898 |
| WDFY3 (UniProt Q8IZQ1) | -2.72 | -0.531 |
| GTPBP8 (UniProt Q8N3Z3) | -0.494 | -0.482 |
| UniProt Q86VP3 | -3.42 | -6.02 |
| UniProt Q8IXU6 | -0.502 | 1.12 |
| MICALL1 (UniProt Q8N3F8) | 0.672 | 0.702 |
| THOC6 (UniProt Q86W42) | 0.171 | -0.0916 |
| COMMD1 (UniProt Q8N668) | 1.63 | 0.491 |
| UniProt Q8IZX4 | -3.36 | -1.18 |
| UniProt Q8N5D0 | 1.4 | 0.256 |
| WDR75 (UniProt Q8IWA0) | -0.0659 | 0.372 |
| CMTR1 (UniProt Q8N1G2) | 0.195 | 0.0244 |
| UniProt Q8IWI9 | -0.628 | -0.782 |
